Test system: plasma membrane GABAARs containing the α4 and β3 subunits
Test: Biotinylation, surface/total GABAAR subunits in hippocampal slices of WT mice
Type: cell-based
Details: 100 nM
Method: Hippocampi were dissected out of acute slices from 8 to 12 week old C57/B16 mice and lysed with phosphate buffer including: 20 mM Tris-HCl, 150 mM NaCl, 5 mM EDTA, 10 mM NaF, 2 mM Na3VO4, 10 mM pyrophosphate, 0.1% SDS and 1% Triton after drug treatment. The β3 subunit was isolated using immunoprecipitation with β3 antibodies, after correction for protein content and the specific activity of labeling. Results were attained by SDS/PAGE followed by autoradiography (Abramian et al., 2010). For biotinylation experiments hippocampi were dissected out of acute slices from 8 to 12 week old C57/B16 mice and incubated in artificial cerebrospinal fluid (ACSF) described above at 30° C. for 1 h for recovery before experimentation. Slices were then placed on ice and incubated for 30 min with 1 mg/mL NHS-SS-biotin (Pierce). Excess biotin was removed by a 50 mM glycine quenching buffer, followed by washing of slices three times in ice-cold ACSF. The tissue was snap frozen on dry ice for 5 min, thawed at 4° C. and lysed. The lysates were solubilized with 2% Triton at 4° C. on a rotating wheel for 1 h. The insoluble material was removed by centrifugation, and 350-500 μg of protein lysate were incubated with NeutrAvidin beads (Pierce) for 18-24 h at 4° C. […] Blots were then quantified using the CCD-based ChemiDoc XRS ? system. […]

CN1C(=O)CN=C(c2ccccc2)c2cc(Cl)ccc21 [diazepam]
cell surface stability of the β3 subunit: did not affect

From US20200341000A1, “METHOD OF SCREENING COMPOUNDS FOR TREATING CNS DISORDERS” (SAGE THERAPEUTICS, INC., priority 2017, published 2020)
